Measured values published in patent US20110207694A1, “MAMMALIAN HYPOTHALAMIC NUTRIENT MODULATION OF GLUCOSE METABOLISM” (priority 2005, published 2011).

Tested on: male Sprague-Dawley rats
Assay: ICV infusion: plasma triglycerides and metabolites under basal and pancreatic clamp conditions
Type: in vivo, rat
Conditions: for Adiponectin / Insulin: plasma
Source text: Animal preparation. We studied 10-week-old male Sprague-Dawley rats. Rats underwent stereotaxic surgery to indwell single catheters in the third cerebral ventricle {intracerebroventricular (ICV)(Obici et al., 2001) or bilateral catheters into the mediobasal hypothalamus (Lam et al., 2005c). One week later, we placed indwelling catheters in the internal jugular vein and carotid artery for sampling and infusion during the in vivo experiments (Obici et al., 2001). Recovery from surgery was monitored by measuring daily food intake and weight gain for 4-5 days after surgery.
Infusion protocols. The in vivo infusion experiments lasted a total of 360 min, and the experiments were carried out in rats that had their food removed ˜5 h before the experiments. Thus, at the time of the experiment, the rats are in post-absorptive state since their stomach should be completely emptied by 5 h fasting. […] This ICV glucose protocol physiologically elevate hypothalamic glucose concentration by ˜70% as previously described (Lam et al., 2005b) and is similar to that induced by a doubling of the circulating glucose levels (Lam et al., 2005b). During the ICV infusions, we monitored the plasma metabolite levels under pre-infused (0 min), basal (180-240 min) and pancreatic clamp (300-360 min) conditions. […] A basal insulin-pancreatic clamp was performed in the final 2 h (240-360 min) of the study as previously described (Lam et al., 2005b). In brief, a continuous infusion of insulin (1 mU/kg.min) and somatostatin (3 μg/kg.min) was administered, and a variable infusion of a 25% glucose solution was started and periodically adjusted to clamp and maintain the plasma glucose concentration at ˜8 mM. […] To examine the time-dependent effects of ICY glucose on plasma triglycerides, ICY (5 μl/h) 2 mM D-glucose or mannitol was administrated for 210 min and plasma triglyceride levels were monitored at 0, 20, 60, 120, 180, 210 min. […] Plasma triglycerides were monitored under basal, pancreatic clamp and tyloxapol-treated conditions. At the end of the infusion experiments, rats were anesthetized and tissue samples were freeze-clamped in situ with aluminum tongs pre-cooled in liquid nitrogen. All tissue samples were stored at −80° C. for subsequent analysis.
Biochemical analyses. Plasma glucose concentrations were measured by the glucose oxidase method (Glucose Analyzer II, Beckman Instruments, Inc., Fullerton, Calif.). […] FFA concentrations were determined by an enzyme assay in accordance with the manufacturer's specifications (Waco Pure Chemical Industries. Osaka. Japan). Plasma insulin concentrations (with rat and porcine insulin standards) were measured by radioimmunoassay (RIA). Plasma adiponectin concentrations were measured by RIA (Linco Inc., Austin, Tex., USA). Liver triglycerides were measured as described (Muse et al., 2004).
Calculations. Statistical analysis was done by unpaired Student's t test or analysis of variance as appropriate. Data are presented as means±SEM. All values were collapsed into a single value for each animal prior to the calculation of mean. The time period 180-240 min was averaged for the basal and the time period 300-360 min was averaged for the clamp conditions.

[1] = Clamp, central lactate administration
[2] = Saline, central lactate administration
[3] = Basal, central glucose administration
[4] = Clamp, central glucose administration

Question: Which results are given for C[C@H](O)C(=O)O [lactate, L-lactate]?
Answer: Adiponectin [1]: 1.1 ± 0.3 ηg/ml; Insulin [1]: 32 ± 7 μU/ml; Body weight [2]: 309 ± 8 g; Insulin [2]: 15 ± 3 μU/ml

Question: Which results are given for O=C[C@H](O)[C@@H](O)[C@H](O)[C@H](O)CO [glucose, D-glucose]?
Answer: Body weight [3]: 302 ± 7 g; Insulin [3]: 14 ± 5 μU/ml; Adiponectin [4]: 1.5 ± 0.1 ηg/ml; Insulin [4]: 32 ± 5 μU/ml
